Experimental data taken from PubChem BioAssay AID540276 (National Center for Advancing Translational Sciences (NCATS), 2011).
Screen size: about 300,000 compounds; about 5,400 (1.8%) were called active. Inconclusive means that the source gave no clear call. Such entries were picked first, then a sample of the others. The call rests on the fitted dose curve; tested in HEK293 cells. Where the call is inconclusive, the potency comes from a doubtful curve fit.

Assay: qHTS for inhibitors of binding or entry into cells for Marburg Virus
Details: Marburg virus pseudotyped entry inhibition, cell reporter; activity change, negative = inhibition: at 37.8 µM (top of the series) unless noted
On the % scale 0 is the no-effect control and ±100 the full control effect; potency means the concentration at half of the fitted maximal effect.

SMILES	Potency	activity change, negative = inhibition
O=C(Nc1ccccc1N1CCN(c2ccc(F)cc2)CC1)c1ccccc1	inconclusive: 22.4 µM [inhibitor, single point]	
C=CCn1c(SCc2ccc(Cl)cc2)nc2c1c(=O)[nH]c(=O)n2C	inconclusive: 12.6 µM [inhibitor, partial curve, poor fit]	
Clc1ccc(CSC2=NCCCN2)cc1Cl	inconclusive: 28.2 µM [inhibitor, single point]	
COc1ccc(-c2noc(Cc3ccc(Cl)cc3)n2)cc1OC		inactive: -11.9%
CCOC(=O)CNC(=O)CSc1nnc(NC(=O)c2ccc(C)cc2)s1	active: 6.31 µM	
CCc1cc2c(s1)N(CC(=O)OC)C(=O)CN=C2c1ccccc1OC		inactive: -25.8% [at 46.1 µM]
CC1CCc2nc(NC(=O)C3CC3)sc2C1 (stereo unspecified)	inconclusive: 6.31 µM [activator, single point]	
Cn1c(=O)c2c(-c3ccc(Cl)cc3)n(Cc3ccccc3)cc2n(C)c1=O		inactive: -24.3% [at 46.1 µM]
Nc1cc(N)nc(SCCc2ccccc2)n1	inconclusive: 0.141 µM [inhibitor, single point]	
CS(=O)(=O)c1ccc2nc(NC(=O)c3cccc(Cl)c3)sc2c1	inconclusive: 35.5 µM [activator, partial curve, poor fit]	
CC(C)(C)NC(=O)CSc1nnc(-c2ccncc2)o1	inconclusive: 14.1 µM [activator, single point]	
COc1ccc(C(=O)n2cnc3ccccc32)cc1Br	inconclusive: 31.6 µM [activator, single point]	
CCn1cnc2sc(C(=O)N(Cc3ccc(N(C)C)cc3)Cc3ccco3)c(C)c2c1=O	active: 5.01 µM	
C/C(=N\Nc1nc2ccccc2c(=O)n1O)c1ccco1	inconclusive: 12.6 µM [inhibitor, single point]	
Cc1nn(-c2ccccc2)c(C)c1C(=O)OCC(=O)c1c(N)n(CC(C)C)c(=O)n(C)c1=O	inconclusive: 0.058 µM [inhibitor, full curve]	
CN(Cc1ccccc1NS(=O)(=O)c1ccc2ccccc2c1)C1CCCCC1	inconclusive: 10 µM [inhibitor, partial curve, poor fit]	
Cn1cc(-c2ccc(Cl)cc2)cc(C#N)c1=O		inactive: -14.6% [at 46.1 µM]
COc1ccc(N(C(=O)CCl)C(C)(C(=O)Nc2c(C)cccc2C)c2ccccn2)cc1 (stereo unspecified)	inconclusive: 5.01 µM [inhibitor, single point]	

Some of the entries so far, field by field:
CCn1cnc2sc(C(=O)N(Cc3ccc(N(C)C)cc3)Cc3ccco3)c(C)c2c1=O
  Potency: active: 5.01 µM
C/C(=N\Nc1nc2ccccc2c(=O)n1O)c1ccco1
  Potency: inconclusive: 12.6 µM [inhibitor, single point]

(listing goes on)

SMILES	Potency	activity change, negative = inhibition
CCCOc1ccc(-c2c(=O)n(OCc3ccc([N+](=O)[O-])cc3)c3ccccc3[n+]2[O-])cc1		inactive: -2.79%
COc1cc(C(=O)NC(C)Cc2cccs2)cc(OC)c1OC (stereo unspecified)		inactive: -12.7% [at 46.1 µM]
CCOc1ccc(C(=O)NCC(=O)NCCCSc2ccccc2)cc1OCC		inactive: -5.97%
CCN(CC)S(=O)(=O)c1ccc2oc(C(=O)NCc3ccc(C)cc3)c(C)c2c1	inconclusive: 29.1 µM [inhibitor, single point]	
COc1cccc(NS(=O)(=O)c2ccc3c(c2)C2C=CCC2C(c2ccc(C(=O)O)cc2)N3)c1 (stereo unspecified)	inconclusive: 35.5 µM [inhibitor, single point]	
COC(=O)CSc1nc(-c2ccccc2)cc(-c2ccco2)c1C#N	inconclusive: 1.83 µM [inhibitor, partial curve, poor fit]	
CCCC(=O)c1ccc(-c2ccccc2)cc1	inconclusive: 0.562 µM [activator, full curve, poor fit]	
Cc1ccc(-n2nnnc2SCC(=O)NC(=O)Nc2ccc3c(c2)OCCO3)cc1		inactive: 18%
CC1C(C)N(C(=O)CCl)c2ccccc2N1C(=O)CCl (stereo unspecified)	inconclusive: 10 µM [inhibitor, partial curve, poor fit]	
COC(=O)c1cc(NC(=O)Nc2ccccc2)ccc1Cl	inconclusive: 0.58 µM [activator, partial curve, poor fit]	
Cc1cccc(/C=C2\CCC(C3CCCC3)C2=O)c1 (stereo unspecified)	inconclusive: 7.94 µM [activator, partial curve, poor fit]	
O=C(CNC(=O)c1ccccc1F)OCc1csc(-c2ccccc2)n1	inconclusive: 10 µM [activator, partial curve, poor fit]	
COc1cc(/C=C/c2nc(C#N)c(N3CCCCCC3)o2)cc(OC)c1OC	inconclusive: 35.5 µM [inhibitor, single point]	
O=c1[nH]c(=S)[nH]c(O)c1N=Nc1ccc(SC(F)F)cc1	inconclusive: 22.4 µM [inhibitor, single point]	
Oc1ccccc1C=NNc1nc2ccccc2s1	inconclusive: 7.08 µM [inhibitor, single point]	
Cc1ccc(NC(=O)CCCNC(=O)c2ccc(Cl)cc2)nc1	inconclusive: 0.316 µM [activator, full curve, poor fit]	
Fc1ccc(NC(=S)Nc2ccc(Br)cc2)cc1		inactive: -37.7%
COc1cc(NC(=O)c2cccs2)cc(OC)c1		inactive: 15.6%
